Data taken from PubChem BioAssay AID504749, deposited by NCATS (2011).

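A panel of P. falciparum strains inside erythrocytes is exposed to compounds for three days, then a DNA-binding dye reports the amount of parasite DNA. Each compound was titrated across a series from about 0.000037 to 29 µM. The number is the fitted AC50, the concentration giving a half-maximal change in signal; a lower value means higher potency, whether the curve shows a decrease or an increase. Calls follow the curve class and fit quality: every row here is inconclusive, covering signal-raising curves and weak, poorly fitted, partial or highest-dose-only inhibition curves.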

Values are in µM. All entries here are filed as inconclusive. Only part of the assay is shown, chiefly results filed as inconclusive. Potencies fitted to partial, single-point or poorly fitting curves are rough.

{"compound": "CCCCCCCCOc1ccccc1C(=O)Nc1ccc(C(=O)OCC[N+](C)(CC)CC)cc1", "tested on / at": "PC26", "potency (µM)": "16.94", "remark": "inhibitor, single point"}
{"compound": "CCCCCCCCOc1ccccc1C(=O)Nc1ccc(C(=O)OCC[N+](C)(CC)CC)cc1", "tested on / at": "CP265", "potency (µM)": "11.22", "remark": "inhibitor, single point"}
{"compound": "CCCCCCCCOc1ccccc1C(=O)Nc1ccc(C(=O)OCC[N+](C)(CC)CC)cc1", "tested on / at": "CP194", "potency (µM)": "19.01", "remark": "inhibitor, single point"}
{"compound": "CCCCCCCCOc1ccccc1C(=O)Nc1ccc(C(=O)OCC[N+](C)(CC)CC)cc1", "tested on / at": "CP297", "potency (µM)": "19.01", "remark": "inhibitor, single point"}
{"compound": "CCCCCCCCOc1ccccc1C(=O)Nc1ccc(C(=O)OCC[N+](C)(CC)CC)cc1", "tested on / at": "CP215", "potency (µM)": "19.01", "remark": "inhibitor, single point"}
{"compound": "CCCCCCCCOc1ccccc1C(=O)Nc1ccc(C(=O)OCC[N+](C)(CC)CC)cc1", "tested on / at": "CP201", "potency (µM)": "19.01", "remark": "inhibitor, single point"}
{"compound": "CCCCCCCCOc1ccccc1C(=O)Nc1ccc(C(=O)OCC[N+](C)(CC)CC)cc1", "tested on / at": "CP305", "potency (µM)": "13.46", "remark": "inhibitor, single point"}
{"compound": "C=C1C(=CC=C2CCC[C@@]3(C)[C@@H]2CC[C@H]3[C@H](C)CCCC(C)C)C[C@@H](O)C[C@@H]1O", "tested on / at": "TAB113", "potency (µM)": "17.78", "remark": "inhibitor, single point"}
{"compound": "C=C1C(=CC=C2CCC[C@@]3(C)[C@@H]2CC[C@H]3[C@H](C)CCCC(C)C)C[C@@H](O)C[C@@H]1O", "tested on / at": "CP256", "potency (µM)": "10", "remark": "inhibitor, single point"}
{"compound": "C=C1C(=CC=C2CCC[C@@]3(C)[C@@H]2CC[C@H]3[C@H](C)CCCC(C)C)C[C@@H](O)C[C@@H]1O", "tested on / at": "PC49", "potency (µM)": "17.78", "remark": "inhibitor, single point"}
{"compound": "C=C1C(=CC=C2CCC[C@@]3(C)[C@@H]2CC[C@H]3[C@H](C)CCCC(C)C)C[C@@H](O)C[C@@H]1O", "tested on / at": "DFO2036", "potency (µM)": "17.78", "remark": "inhibitor, single point"}
{"compound": "C=C1C(=CC=C2CCC[C@@]3(C)[C@@H]2CC[C@H]3[C@H](C)CCCC(C)C)C[C@@H](O)C[C@@H]1O", "tested on / at": "CP335", "potency (µM)": "1.2", "remark": "inhibitor, partial curve, poor fit"}
{"compound": "C=C1C(=CC=C2CCC[C@@]3(C)[C@@H]2CC[C@H]3[C@H](C)CCCC(C)C)C[C@@H](O)C[C@@H]1O", "tested on / at": "P93_24", "potency (µM)": "17.78", "remark": "inhibitor, single point"}
{"compound": "C=C1C(=CC=C2CCC[C@@]3(C)[C@@H]2CC[C@H]3[C@H](C)CCCC(C)C)C[C@@H](O)C[C@@H]1O", "tested on / at": "CP286", "potency (µM)": "17.78", "remark": "inhibitor, single point"}
{"compound": "C=C1C(=CC=C2CCC[C@@]3(C)[C@@H]2CC[C@H]3[C@H](C)CCCC(C)C)C[C@@H](O)C[C@@H]1O", "tested on / at": "CP185", "potency (µM)": "8.912", "remark": "inhibitor, single point"}
{"compound": "C=C1C(=CC=C2CCC[C@@]3(C)[C@@H]2CC[C@H]3[C@H](C)CCCC(C)C)C[C@@H](O)C[C@@H]1O", "tested on / at": "CP260", "potency (µM)": "17.78", "remark": "inhibitor, single point"}
{"compound": "C=C1C(=CC=C2CCC[C@@]3(C)[C@@H]2CC[C@H]3[C@H](C)CCCC(C)C)C[C@@H](O)C[C@@H]1O", "tested on / at": "ATS189", "potency (µM)": "12.59", "remark": "inhibitor, single point"}
{"compound": "C=C1C(=CC=C2CCC[C@@]3(C)[C@@H]2CC[C@H]3[C@H](C)CCCC(C)C)C[C@@H](O)C[C@@H]1O", "tested on / at": "PAD", "potency (µM)": "10", "remark": "inhibitor, single point"}
{"compound": "C=C1C(=CC=C2CCC[C@@]3(C)[C@@H]2CC[C@H]3[C@H](C)CCCC(C)C)C[C@@H](O)C[C@@H]1O", "tested on / at": "CP238", "potency (µM)": "17.78", "remark": "inhibitor, single point"}
{"compound": "C=C1C(=CC=C2CCC[C@@]3(C)[C@@H]2CC[C@H]3[C@H](C)CCCC(C)C)C[C@@H](O)C[C@@H]1O", "tested on / at": "SC27B", "potency (µM)": "11.22", "remark": "inhibitor, single point"}
{"compound": "C=C1C(=CC=C2CCC[C@@]3(C)[C@@H]2CC[C@H]3[C@H](C)CCCC(C)C)C[C@@H](O)C[C@@H]1O", "tested on / at": "PC15", "potency (µM)": "11.22", "remark": "inhibitor, single point"}
{"compound": "C=C1C(=CC=C2CCC[C@@]3(C)[C@@H]2CC[C@H]3[C@H](C)CCCC(C)C)C[C@@H](O)C[C@@H]1O", "tested on / at": "CP247", "potency (µM)": "17.78", "remark": "inhibitor, partial curve, poor fit"}

For reference, 2 entries once more:

compound	tested on / at	potency (µM)	remark
CCCCCCCCOc1ccccc1C(=O)Nc1ccc(C(=O)OCC[N+](C)(CC)CC)cc1	CP305	13.46	inhibitor, single point
C=C1C(=CC=C2CCC[C@@]3(C)[C@@H]2CC[C@H]3[C@H](C)CCCC(C)C)C[C@@H](O)C[C@@H]1O	CP335	1.2	inhibitor, partial curve, poor fit